Results are given in words; binding and its absence hold for the method and conditions named. Binding seen in cells or lysates may run through a third protein. Binding calls can cover weak binding; strength is not graded here. Sequences can lack the tags named with a protein.
Biological target: T1, GST-Kap104 (S. cerevisiae) (UniProt P38217)
T1 sequence: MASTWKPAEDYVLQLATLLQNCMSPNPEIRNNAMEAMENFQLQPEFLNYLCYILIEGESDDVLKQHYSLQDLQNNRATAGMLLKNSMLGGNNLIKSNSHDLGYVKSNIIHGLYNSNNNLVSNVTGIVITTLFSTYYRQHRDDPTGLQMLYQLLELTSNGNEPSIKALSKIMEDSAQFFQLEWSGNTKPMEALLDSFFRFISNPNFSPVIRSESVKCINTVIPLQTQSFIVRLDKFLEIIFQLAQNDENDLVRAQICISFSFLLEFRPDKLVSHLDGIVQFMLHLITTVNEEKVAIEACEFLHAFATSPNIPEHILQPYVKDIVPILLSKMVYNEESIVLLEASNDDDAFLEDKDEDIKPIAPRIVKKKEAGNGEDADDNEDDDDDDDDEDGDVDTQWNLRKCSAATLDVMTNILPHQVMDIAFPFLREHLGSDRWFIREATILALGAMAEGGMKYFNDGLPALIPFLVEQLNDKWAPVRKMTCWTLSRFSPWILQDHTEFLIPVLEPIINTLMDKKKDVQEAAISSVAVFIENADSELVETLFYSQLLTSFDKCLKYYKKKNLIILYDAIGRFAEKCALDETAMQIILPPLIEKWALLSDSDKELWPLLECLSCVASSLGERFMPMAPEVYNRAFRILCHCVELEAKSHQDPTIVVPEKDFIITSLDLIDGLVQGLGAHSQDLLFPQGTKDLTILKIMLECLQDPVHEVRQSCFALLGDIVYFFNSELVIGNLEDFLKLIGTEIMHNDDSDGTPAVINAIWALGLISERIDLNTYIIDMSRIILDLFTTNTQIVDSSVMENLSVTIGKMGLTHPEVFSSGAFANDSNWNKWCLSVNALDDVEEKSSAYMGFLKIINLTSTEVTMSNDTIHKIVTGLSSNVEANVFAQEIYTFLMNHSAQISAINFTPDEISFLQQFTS
Test: pull-down; dissociation kinetics: pre-immobilised GST-importin:eS26^FLAG complexes with buffer, 1.5 µM or 375 nM RanGTP or Tsr2; samples withdrawn at 1, 2, 4 and 8 min; only the target purified

Amino acid sequences for entries named in this document (tags omitted). A change or cut given only in a name is not applied to a line headed by its entry.
UniProt P39938: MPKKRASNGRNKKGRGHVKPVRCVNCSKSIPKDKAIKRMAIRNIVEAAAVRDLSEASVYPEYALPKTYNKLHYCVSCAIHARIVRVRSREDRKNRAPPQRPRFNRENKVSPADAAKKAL

binding: binds
Substance: eS26^FLAG (from UniProt P39938)
